US11213590B2, “SSTR-targeted conjugates and particles and formulations thereof” (priority 2016, dated 2022)
At least one peptide structure holds a part that was inferred or is arguable (an end, a ring closure or a residue).

By UniProt entry, the sequences of proteins in these tests, tags left out. Where a name states a change or a piece, a line headed by the entry shows the natural chain unless it says otherwise.
UniProt P35346: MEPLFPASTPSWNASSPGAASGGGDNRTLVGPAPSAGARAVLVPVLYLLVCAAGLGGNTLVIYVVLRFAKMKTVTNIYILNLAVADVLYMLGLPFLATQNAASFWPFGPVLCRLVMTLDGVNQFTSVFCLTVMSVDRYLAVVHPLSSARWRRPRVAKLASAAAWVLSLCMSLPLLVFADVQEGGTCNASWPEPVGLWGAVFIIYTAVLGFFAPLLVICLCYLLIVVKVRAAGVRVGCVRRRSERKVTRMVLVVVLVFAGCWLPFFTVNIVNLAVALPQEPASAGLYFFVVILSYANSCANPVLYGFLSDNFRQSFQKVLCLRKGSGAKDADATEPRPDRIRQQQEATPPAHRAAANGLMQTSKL
UniProt P32745: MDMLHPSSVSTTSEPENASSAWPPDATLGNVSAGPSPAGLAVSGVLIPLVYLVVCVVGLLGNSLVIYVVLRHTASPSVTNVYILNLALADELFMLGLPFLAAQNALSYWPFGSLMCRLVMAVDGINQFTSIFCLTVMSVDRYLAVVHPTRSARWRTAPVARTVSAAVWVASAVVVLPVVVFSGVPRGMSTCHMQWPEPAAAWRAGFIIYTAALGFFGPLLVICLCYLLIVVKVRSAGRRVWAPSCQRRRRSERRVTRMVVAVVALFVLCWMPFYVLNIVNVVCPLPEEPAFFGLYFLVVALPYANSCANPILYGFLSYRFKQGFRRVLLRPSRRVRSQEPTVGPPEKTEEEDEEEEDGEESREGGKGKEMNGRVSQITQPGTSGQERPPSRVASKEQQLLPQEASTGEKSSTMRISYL
UniProt P30872: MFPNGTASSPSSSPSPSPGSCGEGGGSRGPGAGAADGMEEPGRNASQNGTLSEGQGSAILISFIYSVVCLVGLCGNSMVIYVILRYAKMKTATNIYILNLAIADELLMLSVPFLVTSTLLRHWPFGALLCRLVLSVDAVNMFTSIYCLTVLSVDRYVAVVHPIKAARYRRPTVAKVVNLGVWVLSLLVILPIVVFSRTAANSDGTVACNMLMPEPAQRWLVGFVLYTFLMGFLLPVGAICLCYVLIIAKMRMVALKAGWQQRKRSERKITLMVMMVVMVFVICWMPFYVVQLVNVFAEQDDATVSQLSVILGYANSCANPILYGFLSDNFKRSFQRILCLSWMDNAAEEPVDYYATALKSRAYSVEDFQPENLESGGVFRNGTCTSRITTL
UniProt P31391: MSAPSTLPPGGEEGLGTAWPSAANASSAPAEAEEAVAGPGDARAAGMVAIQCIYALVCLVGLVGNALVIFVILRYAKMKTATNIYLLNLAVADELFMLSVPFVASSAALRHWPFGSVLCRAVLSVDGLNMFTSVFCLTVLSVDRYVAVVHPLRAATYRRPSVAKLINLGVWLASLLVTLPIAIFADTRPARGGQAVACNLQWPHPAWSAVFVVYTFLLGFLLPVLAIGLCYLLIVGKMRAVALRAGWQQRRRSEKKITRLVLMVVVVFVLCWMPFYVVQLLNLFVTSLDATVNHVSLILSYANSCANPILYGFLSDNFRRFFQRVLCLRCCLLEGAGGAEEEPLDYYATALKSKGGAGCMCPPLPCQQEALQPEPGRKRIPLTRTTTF

Tests used:
Type in all cases: binding
SSTR5 = SSTR5 (Homo sapiens, UniProt P35346); test: Affinity profile (half-maximal inhibitory concentration), SSTR5; conditions: read-out: Half-maximal Inhibitory Concentration, SSTR5; human somatostatin receptor
From the text: (§1) DOTATE, also known as DOTA-TATE or DOTA-octreotate, comprises an amide of the acid DOTA, which connects a radionuclide and (Tyr3)-octreotate, a derivative of octreotide. DOTATOC, also known as edotreotide, SMT487, or (DOTA^0-Phe^1-Tyr^3)octreotide, is also an octreotide derivative which can be bound to radionuclides for diagnosis and treatment.

SSTR3 = SSTR3 (Homo sapiens, UniProt P32745); test: Affinity profile (half-maximal inhibitory concentration), SSTR3; conditions: read-out: Half-maximal Inhibitory Concentration, SSTR3; human somatostatin receptor
From the text: as §1

SSTR1 = SSTR1 (Homo sapiens, UniProt P30872); test: Affinity profile (half-maximal inhibitory concentration), SSTR1; conditions: read-out: Half-maximal Inhibitory Concentration, SSTR1; human somatostatin receptor
From the text: as §1

SSTR4 = SSTR4 (Homo sapiens, UniProt P31391); test: Affinity profile (half-maximal inhibitory concentration), SSTR4; conditions: read-out: Half-maximal Inhibitory Concentration, SSTR4; human somatostatin receptor
From the text: as §1

SMILES	IC50 (SSTR5)	IC50 (SSTR3)	IC50 (SSTR1)	IC50 (SSTR4)
C[C@@H](O)[C@@H]1NC(=O)[C@H](CCCCN)NC(=O)[C@@H](Cc2c[nH]c3ccccc23)NC(=O)[C@H](Cc2ccc(O)cc2)NC(=O)[C@@H](NC(=O)[C@@H](Cc2ccccc2)NC(=O)CN2CCN3CCN4CCN(CC2)CC(=O)[O][68Ga]([O]C(=O)C3)[O]C(=O)C4)CSSC[C@@H](C(=O)N[C@H](CO)[C@@H](C)O)NC1=O [^68Ga-DOTATOC]	73 nM	613 nM	> 10000 nM	> 1000 nM
C[C@@H](O)[C@H](NC(=O)[C@@H]1CSSC[C@H](NC(=O)[C@@H](Cc2ccccc2)NC(=O)CN2CCN3CCN4CCN(CC2)CC(=O)[O][68Ga]([O]C(=O)C3)[O]C(=O)C4)C(=O)N[C@@H](Cc2ccc(O)cc2)C(=O)N[C@H](Cc2c[nH]c3ccccc23)C(=O)N[C@@H](CCCCN)C(=O)N[C@@H]([C@@H](C)O)C(=O)N1)C(=O)O [^68Ga-DOTATATE]	377 nM	–	> 10000 nM	–
